Results: PubChem BioAssay AID1347076 (National Center for Advancing Translational Sciences (NCATS), 2019)
In all, about 400,000 compounds went through this assay and about 13,000 (3.2%) were called active. The shares of active, inactive and inconclusive entries below differ from those in the screen. The call rests on the fitted dose curve; in most records, active means well fitted cell-killing curve with a large enough effect; inconclusive means small, poorly fitted or top-dose-only effect, or effect the other way; inactive means flat fitted curve, though single readings scatter. A potency beside an inconclusive call is a rough fit, not a confirmed value.

Assay: qHTS assay for MDR1-selective chemotherapeutics: Primary screen using the drug-selected MDR subline cells KB-V1; further: nearly all actives have a fitted effect of over 60% in size
Details: KB-V1 MDR cells viability, CellTiter-Glo, 72 h; activity change, negative = cytotoxicity: at 46.1 µM (top of the series)
Method in brief: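 Potencies derive from concentration-effect curves fitted to normalized luminescence (CellTiter-Glo) of KB-V1 cells treated for 72 h at 37 degrees C in phenol-red-free DMEM containing 10% FBS.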
On the % scale 0 is the no-effect control and ±100 the full control effect; potency means the concentration at half of the fitted maximal effect.

| SMILES | Potency | activity change, negative = cytotoxicity |
| --- | --- | --- |
| Cc1ccc(S(=O)(=O)N(CCC(=O)NCc2ccc(S(N)(=O)=O)cc2)c2ccccc2)cc1 | inconclusive: 29.1 µM [rising, single point] | – |
| CC1=CC(C)(C)Nc2ccc(OC(=O)CCN3C(=O)c4ccccc4C3=O)cc21 | inconclusive: 16.4 µM [cytotoxic, single point] | – |
| CCC1=Nc2cc(C(=O)NCC3CCCO3)ccc2Sc2ccc(Br)cc21 (stereo not given) | active: 6.51 µM | – |
| CCOC(=O)N1CCN(C(=O)C2CCN(S(=O)(=O)c3ccc(C)cc3)CC2)CC1 | inactive | – |
| COc1ccccc1C(=O)NCCC(=O)NCC(c1ccco1)N1CCCCC1 (stereo not given) | inconclusive: 14.6 µM [cytotoxic, partial curve, poor fit] | – |
| Cc1ccc(C(=O)C[n+]2ccccc2C)cc1[N+](=O)[O-] | inconclusive: 29.1 µM [rising, single point] | – |
| O=C(CSc1nnc(Nc2ccccc2)s1)NCc1cccs1 | inconclusive: 29.1 µM [rising, single point] | – |
| CCCN(CCC)C(=O)c1ccccc1C(=O)N(CCC)CCC | active: 8.2 µM | – |
| Cc1c(Cl)cccc1NS(=O)(=O)c1c(C(=O)N2CCOCC2)c(C)n(C)c1C | inactive | – |
| CCOC(=O)[C@]12CCCC=C1N(Cc1ccc(Cl)cc1Cl)C(=O)[C@H](CC(=O)NCCCCc1ccccc1)C2 | inconclusive: 10.3 µM [cytotoxic, partial curve] | – |
| Cc1ccc(Cl)cc1N1CCN(C(=O)c2cnc(N3CCOCC3)c3ccccc23)CC1 | inconclusive: 5.17 µM [cytotoxic, partial curve] | – |
| CC(C)Cn1c(O)c(/C=C2\C=NN=C2c2ccccc2)sc1=S | inconclusive: 20.6 µM [cytotoxic, single point] | – |
| CN(c1ccccc1)S(=O)(=O)c1cccc(NC(=O)c2ccc(Cl)c([N+](=O)[O-])c2)c1 | active: 16.4 µM | – |
| CCOc1ccc(OCCN2C(=O)NC(Cc3c[nH]c4ccccc34)C2=O)cc1 (stereo not given) | inconclusive: 29.1 µM [cytotoxic, single point] | – |
| Cc1ccc(C)c(OCCCNC2CCCC2)c1C | inactive | – |
| C#CCOCCOCCOCCNc1nc(N2CCOCC2)nc(N2CCN(C(=O)[C@H](CCCCN)n3cc(CCCC)nn3)CC2)n1 | inactive | – |
| C=CCNCCCCOc1ccccc1-c1ccccc1 | inactive | – |
| C/C(=N\NC(=O)c1cccc(S(=O)(=O)N2CCCC2)c1)c1ccc(C)cc1 | inconclusive: 10.3 µM [cytotoxic, partial curve] | – |
| CCOC(=O)C1CCCN(c2nc(C)nc3c2oc2ccccc23)C1 (stereo not given) | active: 8.2 µM | – |
| CC(C)NC(=O)/C(=C\c1cccc([N+](=O)[O-])c1)NC(=O)c1ccccc1 | inconclusive: 29.1 µM [cytotoxic, single point] | – |
| COc1ccc(Cc2nnc(SCC(=O)Nc3ccc(C)cc3C)[nH]c2=O)cc1 | inactive | – |
| CCn1nc(NC(=O)CC(C)C)c2cc3cccc(C)c3nc21 | inactive | – |
| O=CN(CCNc1ccccc1)c1ccccc1 | inconclusive: 29.1 µM [cytotoxic, single point] | – |
| Cc1sc2ncn(CC(=O)NC3CCCCC3)c(=O)c2c1C | inactive | – |

Pulled by structure from the entries so far:

| SMILES | Potency | activity change, negative = cytotoxicity |
| --- | --- | --- |
| Cc1sc2ncn(CC(=O)NC3CCCCC3)c(=O)c2c1C | inactive | – |
| CN(c1ccccc1)S(=O)(=O)c1cccc(NC(=O)c2ccc(Cl)c([N+](=O)[O-])c2)c1 | active: 16.4 µM | – |
| C=CCNCCCCOc1ccccc1-c1ccccc1 | inactive | – |

Additional records follow:

| SMILES | Potency | activity change, negative = cytotoxicity |
| --- | --- | --- |
| COCCNC(=O)/C(C#N)=C/c1cc(C)n(-c2ccc(C)cc2)c1C | inconclusive: 5.17 µM [cytotoxic, partial curve] | – |
| O=C(CCS(=O)(=O)c1cc2c(cc1Cl)NC(=O)CO2)NCc1ccc(F)cc1 | inactive | – |
| Cc1nc2ccc(S(=O)(=O)NCC(=O)N(C)Cc3ccccc3)cc2s1 | inconclusive: 16.4 µM [cytotoxic, single point] | – |
| Cc1ccc(NC(=O)CS(=O)CC(=O)Nc2cccc(C)c2C)cc1F (stereo not given) | inconclusive: 23.1 µM [cytotoxic, partial curve] | – |
| COc1ccc(C2=CC(c3ccc(F)cc3)n3ncc(C(=O)Nc4ccc(C)cc4)c3N2)cc1 (stereo not given) | inactive | – |
| Cc1cc(C)nc(SCC(=O)N/N=C\C(Br)=C\c2ccccc2)n1 | inconclusive: 14.6 µM [cytotoxic, partial curve] | – |
| Cc1ccc(S(=O)(=O)N2CCN(C(=O)C3CCCO3)CC2)cc1C (stereo not given) | inconclusive: 20.6 µM [cytotoxic, single point] | – |
| CCOc1ccccc1CNS(=O)(=O)c1ccc2c(c1)CCCN2C(C)=O | inactive | – |
| CC(NCc1ccc([N+](=O)[O-])cc1)C1COc2ccccc2O1 (stereo not given) | inactive | – |
| CCc1ccc(CNC(=O)c2sc3ncccc3c2-n2c(C)ccc2C)cc1 | inactive | – |
| O=C(COC(=O)Cc1ccccc1)NCc1ccc2c(c1)OCO2 | inconclusive: 29.1 µM [rising, single point] | – |
| Fc1ccc(NC(=S)Nc2cc(-c3ccccc3)[nH]n2)cc1Cl | inconclusive: 23.1 µM [cytotoxic, single point] | – |
| Cc1ccc(N(CC(=O)NCCc2ccc(Cl)cc2)S(=O)(=O)N(C)C)cc1 | inactive | – |
| Cc1cc(C(=O)CN2C(=O)c3ccccc3C2=O)c(C)n1Cc1cccs1 | inconclusive: 11.6 µM [cytotoxic, partial curve, poor fit] | – |
| O=[N+]([O-])c1cccc(S(=O)(=O)N2CCN(c3nc(-c4ccccc4)nc4ccccc34)CC2)c1 | inactive | – |
| O=C(N/N=C/c1c(Cl)nc2ccccn2c1=O)c1cccnc1 | inactive | – |
| COc1cccc(Nc2ncnc3ccc(Br)cc23)c1 | inactive | – |
| COc1cccc(NC(=O)CSc2nc3c(oc4ccccc43)c(=O)n2Cc2ccco2)c1 | inactive | – |
| Cc1cccc(CN2CCN(C3CN(Cc4ccccc4)S(=O)(=O)C3)CC2)c1 (stereo not given) | inactive | – |
| Cc1cc(C)c(NC(=O)CSc2nc3ccc(NC(=O)CSc4nnnn4-c4ccccc4)cc3s2)c(C)c1 | inconclusive: 11.6 µM [cytotoxic, partial curve, poor fit] | – |
| Cc1ccc(N2C(=O)C3C4CCC(O4)C3C2=O)c(OC(F)F)c1 (stereo not given) | inconclusive: 29.1 µM [rising, single point] | – |
| CC[C@@H](C)[C@@H]1CN([C@@H](CN2CCC[C@H]2CN2C(N)=NC[C@H]2C(C)C)C(C)C)C(=N)N1CCc1ccc(Cl)c(Cl)c1 | inactive | – |
| COc1ccc(NC(=S)N2CCN(c3ccc4c(c3)C3CCN(C(=O)OCc5ccccc5)C4C3)CC2)c(OC)c1 (stereo not given) | inconclusive: 29.1 µM [cytotoxic, single point] | – |
| Clc1cccc(N2CCN(c3ncnc4c3nc3n4CCCCC3)CC2)c1 | active: 14.6 µM | – |

| SMILES | Potency | activity change, negative = cytotoxicity |
| --- | --- | --- |
| COc1cc(NC(=O)c2ccc(-c3ccnn3C)c3ccoc23)cc(OC)c1OC | inconclusive: 29.1 µM [cytotoxic, single point] | – |
| CCOC(=O)c1scc(-c2ccccc2)c1S(=O)(=O)Nc1ccccc1F | – | inconclusive: -30.9% [cytotoxic] |
| COc1cc(/C=N/O)cc(Br)c1OCC(=O)NCc1ccccc1 | active: 16.4 µM | – |
| Cc1c(Br)c([N+](=O)[O-])nn1CC(=O)NCCc1c[nH]c2ccccc12 | inconclusive: 18.4 µM [cytotoxic, single point] | – |
| Cn1nc(C(=O)NC2CCC(O)CC2)c2ccccc2c1=O (stereo not given) | inconclusive: 1.64 µM [cytotoxic, partial curve, poor fit] | – |
| CCCCN1C(=O)c2[nH]nc(-c3ccccc3O)c2C1c1cccc(OCc2ccccc2)c1 (stereo not given) | inconclusive: 25.9 µM [cytotoxic, single point] | – |
| CC1CC(C)CN(C(=O)c2cc3cc(Br)cc(Br)c3o2)C1 (stereo not given) | inconclusive: 23.1 µM [cytotoxic, single point] | – |
| O=C(O)c1cc(NC2(c3ccccc3)C(=O)c3ccccc3C2=O)ccc1Cl | inconclusive: 20.6 µM [rising, partial curve] | – |
| CCOC(=O)C1CCN(C(=O)COc2ccc(S(=O)(=O)N3CCCC3)cc2C)CC1 | inconclusive: 14.6 µM [cytotoxic, partial curve, poor fit] | – |
| C=CCSc1nsc(NC(=O)Nc2cccc(C(C)=O)c2)n1 | inconclusive: 18.4 µM [cytotoxic, single point] | – |
| O=C(CCc1nc2ccccc2c(=O)[nH]1)Nc1ccc(Cl)c(Cl)c1 | active: 20.6 µM | – |
| COc1ccc(/C=C/CN2CCC(C(=O)NC(c3ccc(F)cc3)c3ccc4ccccc4n3)CC2)cc1 (stereo not given) | inconclusive: 20.6 µM [cytotoxic, single point] | – |
| COc1ccccc1CNC(=O)CCCn1c(=O)c2ccccc2n(CC(=O)NC2CCCC2)c1=O | inconclusive: 13 µM [cytotoxic, single point] | – |
| COc1cccc(CNC(=O)CCCNC(=O)c2ccc(Cl)cc2)c1 | inconclusive: 3.26 µM [cytotoxic, full curve] | – |
| Cc1ccccc1OCC(=O)Nc1ccncc1 | inactive | – |
| COc1ccc(NC(=O)C[C@H]2C(=O)N(c3ccccc3)C[C@@H]2CSC)cc1 | inconclusive: 11.6 µM [cytotoxic, partial curve] | – |
| COC(=O)c1cccc(NC(=O)/C=C/c2ccc3c(c2)OCO3)c1 | inconclusive: 23.1 µM [cytotoxic, single point] | – |
| CCc1ccc2[nH]c(=O)c(CN(Cc3ccccc3)Cc3nnnn3C(C)(C)C)cc2c1 | inactive | – |
| C=CCN(c1ccccc1)S(=O)(=O)c1cccc(C(=O)NCC2CCCO2)c1 (stereo not given) | inconclusive: 8.2 µM [cytotoxic, partial curve] | – |
| COc1cc(OC)cc(C(=O)NCCC(=O)NCCc2ccc(OC)c(OC)c2)c1 | inconclusive: 29.1 µM [cytotoxic, single point] | – |
| CCOC(=O)C(Cc1nc(OCc2ccccc2)cc(OCc2ccccc2)n1)=NO | active: 13 µM | – |
| CC(C)(C)NS(=O)(=O)c1ccc(CCC(=O)Nc2ccc3c(c2)OCCO3)cc1 | active: 16.4 µM | – |
